The supplement of paper PMC3334620
Whole data set: some 33,000 sequences, median “E-score (-0.5 to 0.5)” near -0.015, cut for the highest 2% near 0.3. The list shows a part of the results.

These sequences were tested against T1, Abf1 (UniProt P14164) (assay: PBM E-score (8-mer binding enrichment) (E-score (-0.5 to 0.5)); higher = stronger / more preferred TF binding). Conditions: protein concentration: 200 nM; construct: GST-full length.
T1 sequence: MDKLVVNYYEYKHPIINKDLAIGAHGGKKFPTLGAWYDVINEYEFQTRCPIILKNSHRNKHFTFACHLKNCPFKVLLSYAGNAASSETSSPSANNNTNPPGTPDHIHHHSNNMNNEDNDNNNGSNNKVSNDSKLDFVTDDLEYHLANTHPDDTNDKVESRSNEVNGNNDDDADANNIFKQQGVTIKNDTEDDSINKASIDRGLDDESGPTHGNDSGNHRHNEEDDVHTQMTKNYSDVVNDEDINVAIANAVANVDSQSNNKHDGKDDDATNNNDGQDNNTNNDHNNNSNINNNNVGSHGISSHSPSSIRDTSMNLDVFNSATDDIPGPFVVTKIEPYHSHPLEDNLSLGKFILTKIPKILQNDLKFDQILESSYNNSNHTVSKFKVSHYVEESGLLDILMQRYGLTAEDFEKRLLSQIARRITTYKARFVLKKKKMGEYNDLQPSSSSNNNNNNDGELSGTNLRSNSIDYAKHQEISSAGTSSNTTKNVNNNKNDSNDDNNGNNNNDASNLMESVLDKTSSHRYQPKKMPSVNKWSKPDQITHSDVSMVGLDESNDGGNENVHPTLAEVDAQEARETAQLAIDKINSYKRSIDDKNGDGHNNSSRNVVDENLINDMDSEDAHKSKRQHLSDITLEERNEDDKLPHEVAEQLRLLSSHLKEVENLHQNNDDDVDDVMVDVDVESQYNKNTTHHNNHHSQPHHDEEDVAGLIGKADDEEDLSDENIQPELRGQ
How it was run: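 The E-score, a modified Wilcoxon-Mann-Whitney statistic, was computed by the Universal PBM Analysis Suite for every ungapped eight-base word pooled with its reverse complement. Scans behind it were normalised with masliner after bound GST-tagged yeast transcription factors were detected with fluorescent anti-GST. The proteins, at about 100-200 nM, had been applied to universal all-10-mer Agilent arrays made double-stranded by primer extension.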

Sequence | PBM E-score
GCGCTAAA | -0.0793
GTTCGTTA | 0.185
AAGTCGGT | -0.113
GGCACTAC | -0.0775
CGATTTAG | 0.123
ACTATTCC | 0.0201
ATGTGCGG | -0.0823
GGTACTGA | -0.0964
GAGTCGCC | -0.107
CGGTTGAG | 0.155
GGCGTTGA | 0.0525
CAACACAG | -0.0303
GTTACTGA | 0.121
ACCTTGCC | -0.0345
ACGCCAAC | -0.142
GGCCGAGA | -0.141
TGCTGGAA | -0.0981
AACGCGTA | 0.012
AGAACACG | 0.0555
GACCCGGA | -0.171
CCAAGTGC | -0.225
ACACGCCC | -0.121

Sequence | PBM E-score
GGAATCAA | -0.0539
GACATGGC | -0.0908
CATACCCG | -0.0744
GAGTACAA | 0.149
CCCGAGCA | -0.105
CGGACAAC | 0.0819
ATAGTGAA | 0.0719
ACAAACAT | 0.0383
AAAAGCTG | -0.101
AATAATGT | 0.0517
CACATGAC | 0.144
CGAACGGA | 0.0894
ATGTCTTA | 0.0404
CCAGCTAA | -0.0589
ATTCAGTA | 0.0888
ACACGGGT | -0.0695
CCAGAGTC | -0.092
GTAACGCA | 0.0637
ACCTACAC | -0.063
GACCGGCA | -0.302
GTGATGAA | 0.207
GTAATGCA | -0.123

Sequence | PBM E-score
TCCCAAGA | -0.0087
GTACCCCA | -0.129
CTACGTCC | 0.0118
ACAGGGCT | -0.245
CCCCTCAA | -0.194
GGGCTTAC | -0.0964
AAGGTGTG | -0.216
ATTTAAGA | 0.0589
ACGTAGCC | 0.0785
ACATTACC | 0.0683
ATTAGCCA | -0.143
ACATGATA | 0.315
ACCTCGAA | -0.0838
ACAGGAAA | 0.0114
CCGGGGAC | -0.198
GTCTATCA | 0.00113
ACAGAATA | 0.0746
GAATACAC | -0.0981
GCTGTTCA | -0.0631
AGGTTACA | 0.0369
TAGGACAA | -0.0173
GCAAGTGA | 0.157

Retrieved one by one from above:
Sequence | PBM E-score
GCTGTTCA | -0.0631
GGGCTTAC | -0.0964
GAGTCGCC | -0.107
CCAGCTAA | -0.0589

Next results

Sequence | PBM E-score
AATCCAAA | 0.0599
GCCACCTA | -0.182
CCCGTGGC | -0.0649
AATTCACG | 0.106
GTGCAGCA | -0.178
CATGGGCA | -0.139
AACTGGGC | -0.307
AGGGCCGG | -0.278
AACTTTTC | -0.0439
AAGTAGGG | -0.0151
CAACCTAC | -0.122
GGGACGCA | -0.174
AACATCCC | -0.00865
CGCACTAG | -0.0426
CTATCCCC | -0.3
AATTGACC | 0.109
CAGTATTA | -0.0806
ACGAGAAT | 0.194
AAACTGCA | -0.0426
CAGGACGA | 0.268
